Reference: the supplement of paper PMC8728848
The list shows a part of the results.

Tests used:
Assay in all cases: glycan array binding signal (z-score within array); higher = stronger binding
Conditions in all cases: glycan notation: IUPAC condensed, linker removed
[1] = biological target: Man(a1-2)Man(a1-3)[Man(a1-2)Man(a1-6)]Man
Procedure, shortened: (§1)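 Columns mapping to the same glycan were averaged after glycan names were converted to IUPAC-condensed notation. The data come from 3228 arrays in the Consortium for Functional Glycomics database, limited to those with an available protein sequence. Binding is reported as a within-array Z-score averaged across arrays of one protein sequence and across linkers.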

[2] = biological target: Man(a1-2)Man(a1-3)[Man(a1-2)Man(a1-6)]Man(a1-6)[Man(a1-2)Man(a1-2)Man(a1-3)]Man
Procedure, shortened: as §1

[3] = biological target: Man(a1-2)Man(a1-3)[Man(a1-2)Man(a1-6)]Man(a1-6)[Man(a1-2)Man(a1-2)Man(a1-3)]Man(b1-4)GlcNAc(b1-4)GlcNAc
Procedure, shortened: as §1

[4] = biological target: Man(a1-2)Man(a1-3)[Man(a1-6)]Man(a1-6)[Man(a1-2)Man(a1-3)]Man(b1-4)GlcNAc(b1-4)GlcNAc
Procedure, shortened: as §1

[5] = biological target: Man(a1-2)Man(a1-6)[Man(a1-3)]Man(a1-6)[Man(a1-2)Man(a1-2)Man(a1-3)]Man
Procedure, shortened: as §1

[6] = biological target: Man(a1-2)Man(a1-6)[Man(a1-3)]Man(a1-6)[Man(a1-2)Man(a1-2)Man(a1-3)]Man(b1-4)GlcNAc(b1-4)GlcNAc
Procedure, shortened: as §1

[7] = biological target: Man(a1-3)[Man(a1-6)]Man
Procedure, shortened: as §1

[8] = biological target: Man(a1-3)[Man(a1-6)]Man(a1-6)[Man(a1-2)Man(a1-3)]Man(b1-4)GlcNAc(b1-4)GlcNAc
Procedure, shortened: as §1

[9] = biological target: Man(a1-3)[Man(a1-6)]Man(a1-6)[Man(a1-3)]Man
Procedure, shortened: as §1

[10] = biological target: Man(a1-3)[Man(a1-6)]Man(a1-6)[Man(a1-3)]Man(b1-4)GlcNAc(b1-4)GlcNAc
Procedure, shortened: as §1

[11] = biological target: Man(a1-3)[Man(a1-6)]Man(b1-4)GlcNAc(b1-4)GlcNAc
Procedure, shortened: as §1

[12] = biological target: Man(a1-3)[Man(a1-6)]Man(b1-4)GlcNAc(b1-4)[Fuc(a1-6)]GlcNAc
Procedure, shortened: as §1

[13] = biological target: Man(a1-6)Man
Procedure, shortened: as §1

[14] = biological target: Man(b1-4)GlcNAc
Procedure, shortened: as §1

[15] = biological target: MurNAc(b1-4)GlcNAc
Procedure, shortened: as §1

[16] = biological target: Neu5Ac(a2-3)Gal
Procedure, shortened: as §1

[17] = biological target: Neu5Ac(a2-3)Gal(b1-3)GalNAc
Procedure, shortened: as §1

[18] = biological target: Neu5Ac(a2-3)Gal(b1-3)GalNAc(b1-3)Gal(a1-4)Gal(b1-4)Glc
Procedure, shortened: as §1

[19] = biological target: Neu5Ac(a2-3)Gal(b1-3)GalNAc(b1-4)Gal(b1-4)Glc
Procedure, shortened: as §1

[20] = biological target: Neu5Ac(a2-3)Gal(b1-3)GalNAc(b1-4)[Neu5Ac(a2-3)]Gal(b1-4)Glc
Procedure, shortened: as §1

[21] = biological target: Neu5Ac(a2-3)Gal(b1-3)GalNAc(b1-4)[Neu5Ac(a2-8)Neu5Ac(a2-3)]Gal(b1-4)Glc
Procedure, shortened: as §1

[22] = biological target: Neu5Ac(a2-3)Gal(b1-3)GalNAc6S
Procedure, shortened: as §1

[23] = biological target: Neu5Ac(a2-3)Gal(b1-3)GlcNAc
Procedure, shortened: as §1

[24] = biological target: Neu5Ac(a2-3)Gal(b1-3)GlcNAc(b1-2)Man
Procedure, shortened: as §1

[25] = biological target: Neu5Ac(a2-3)Gal(b1-3)GlcNAc(b1-2)Man(a1-3)[GlcNAc(b1-4)][Neu5Ac(a2-3)Gal(b1-3)GlcNAc(b1-2)Man(a1-6)]Man(b1-4)GlcNAc(b1-4)GlcNAc
Procedure, shortened: as §1

[26] = biological target: Neu5Ac(a2-3)Gal(b1-3)GlcNAc(b1-2)Man(a1-3)[Neu5Ac(a2-3)Gal(b1-3)GlcNAc(b1-2)Man(a1-6)]Man(b1-4)GlcNAc(b1-4)GlcNAc
Procedure, shortened: as §1

[27] = biological target: Neu5Ac(a2-3)Gal(b1-3)GlcNAc(b1-2)[Neu5Ac(a2-3)Gal(b1-3)GlcNAc(b1-4)]Man(a1-6)[Neu5Ac(a2-3)Gal(b1-3)GlcNAc(b1-2)Man(a1-3)]Man(b1-4)GlcNAc(b1-4)GlcNAc
Procedure, shortened: as §1

[28] = biological target: Neu5Ac(a2-3)Gal(b1-3)GlcNAc(b1-3)Gal(b1-3)GlcNAc
Procedure, shortened: as §1

[29] = biological target: Neu5Ac(a2-3)Gal(b1-3)GlcNAc(b1-3)Gal(b1-4)GlcNAc
Procedure, shortened: as §1

[30] = biological target: Neu5Ac(a2-3)Gal(b1-3)GlcNAc(b1-3)GalNAc
Procedure, shortened: as §1

[31] = biological target: Neu5Ac(a2-3)Gal(b1-3)GlcNAc(b1-6)GalNAc
Procedure, shortened: as §1

[32] = biological target: Neu5Ac(a2-3)Gal(b1-3)GlcNAc6S
Procedure, shortened: as §1

[33] = biological target: Neu5Ac(a2-3)Gal(b1-3)[Fuc(a1-4)]GlcNAc
Procedure, shortened: as §1

[34] = biological target: Neu5Ac(a2-3)Gal(b1-3)[Fuc(a1-4)]GlcNAc(b1-3)Gal(b1-3)[Fuc(a1-4)]GlcNAc
Procedure, shortened: as §1

[35] = biological target: Neu5Ac(a2-3)Gal(b1-3)[Fuc(a1-4)]GlcNAc(b1-3)Gal(b1-4)[Fuc(a1-3)]GlcNAc
Procedure, shortened: as §1

[36] = biological target: Neu5Ac(a2-3)Gal(b1-3)[GlcNAc(b1-6)]GalNAc
Procedure, shortened: as §1

[37] = biological target: Neu5Ac(a2-3)Gal(b1-3)[Neu5Ac(a2-6)]GalNAc
Procedure, shortened: as §1

B1: MtEccB1 (Mycobacterium tuberculosis H37Rv), O69734 (protein)
chain: MGLRLTTKVQVSGWRFLLRRLEHAIVRRDTRMFDDPLQFYSRSIALGIVVAVLILAGAALLAYFKPQGKLGGTSLFTDRATNQLYVLLSGQLHPVYNLTSARLVLGNPANPATVKSSELSKLPMGQTVGIPGAPYATPVSAGSTSIWTLCDTVARADSTSPVVQTAVIAMPLEIDASIDPLQSHEAVLVSYQGETWIVTTKGRHAIDLTDRALTSSMGIPVTARPTPISEGMFNALPDMGPWQLPPIPAAGAPNSLGLPDDLVIGSVFQIHTDKGPQYYVVLPDGIAQVNATTAAALRATQAHGLVAPPAMVPSLVVRIAERVYPSPLPDEPLKIVSRPQDPALCWSWQRSAGDQSPQSTVLSGRHLPISPSAMNMGIKQIHGTATVYLDGGKFVALQSPDPRYTESMYYIDPQGVRYGVPNAETAKSLGLSSPQNAPWEIVRLLVDGPVLSKDAALLEHDTLPADPSPRKVPAGASGAP
Question: Which “glycan array binding signal (z-score)” value [1] does the source give for B1 here?
Answer: -0.202

Question: What about the “glycan array binding signal (z-score)” value [2] of the same binder?
Answer: -0.521

Question: And the “glycan array binding signal (z-score)” value [3]?
Answer: -0.633

Question: And the “glycan array binding signal (z-score)” value [4]?
Answer: -0.476

Question: What about the “glycan array binding signal (z-score)” value [5] of the same binder?
Answer: -0.312

Question: What about the “glycan array binding signal (z-score)” value [6] of the same binder?
Answer: -1.16

Question: What about the “glycan array binding signal (z-score)” value [7] of the same binder?
Answer: 0.143

Question: And the “glycan array binding signal (z-score)” value [8]?
Answer: 1.24

Question: And the “glycan array binding signal (z-score)” value [9]?
Answer: 1.83

Question: What about the “glycan array binding signal (z-score)” value [10] of the same binder?
Answer: -1.33

Question: What about the “glycan array binding signal (z-score)” value [11] of the same binder?
Answer: 0.351

Question: What about the “glycan array binding signal (z-score)” value [12] of the same binder?
Answer: 0.339

Question: And the “glycan array binding signal (z-score)” value [13]?
Answer: -0.491

Question: What about the “glycan array binding signal (z-score)” value [14] of the same binder?
Answer: 0.201

Question: What about the “glycan array binding signal (z-score)” value [15] of the same binder?
Answer: -0.788

Question: And the “glycan array binding signal (z-score)” value [16]?
Answer: -0.428

Question: And the “glycan array binding signal (z-score)” value [17]?
Answer: 1.54

Question: And the “glycan array binding signal (z-score)” value [18]?
Answer: -0.38

Question: And the “glycan array binding signal (z-score)” value [19]?
Answer: 0.333

Question: What about the “glycan array binding signal (z-score)” value [20] of the same binder?
Answer: 3.37

Question: And the “glycan array binding signal (z-score)” value [21]?
Answer: -0.694

Question: And the “glycan array binding signal (z-score)” value [22]?
Answer: 0.633

Question: And the “glycan array binding signal (z-score)” value [23]?
Answer: 0.138

Question: And the “glycan array binding signal (z-score)” value [24]?
Answer: -1.36

Question: What about the “glycan array binding signal (z-score)” value [25] of the same binder?
Answer: -0.228

Question: What about the “glycan array binding signal (z-score)” value [26] of the same binder?
Answer: 0.99

Question: What about the “glycan array binding signal (z-score)” value [27] of the same binder?
Answer: 0.687

Question: And the “glycan array binding signal (z-score)” value [28]?
Answer: -0.665

Question: What about the “glycan array binding signal (z-score)” value [29] of the same binder?
Answer: -0.6

Question: And the “glycan array binding signal (z-score)” value [30]?
Answer: 0.017

Question: And the “glycan array binding signal (z-score)” value [31]?
Answer: -0.342

Question: What about the “glycan array binding signal (z-score)” value [32] of the same binder?
Answer: -0.146

Question: And the “glycan array binding signal (z-score)” value [33]?
Answer: 1.24

Question: What about the “glycan array binding signal (z-score)” value [34] of the same binder?
Answer: -1.74

Question: What about the “glycan array binding signal (z-score)” value [35] of the same binder?
Answer: 0.263

Question: And the “glycan array binding signal (z-score)” value [36]?
Answer: -1.55

Question: What about the “glycan array binding signal (z-score)” value [37] of the same binder?
Answer: 0.161
